This note sets out measurements from article PMC4199500.

Amino acid sequences for entries named in this document (tags omitted).
UniProt P31947: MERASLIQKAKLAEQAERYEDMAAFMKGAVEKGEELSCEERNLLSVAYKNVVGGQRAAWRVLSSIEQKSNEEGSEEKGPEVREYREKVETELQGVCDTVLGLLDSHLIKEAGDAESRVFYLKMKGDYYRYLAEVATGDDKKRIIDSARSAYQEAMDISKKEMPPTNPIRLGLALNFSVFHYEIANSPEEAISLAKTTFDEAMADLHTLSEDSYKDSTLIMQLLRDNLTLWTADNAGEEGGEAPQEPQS

Results are given in words; binding and its absence hold for the method and conditions named. Binding seen in cells or lysates may run through a third protein. A result given as binding can be weak or reduced; the word gives no strength.

The target of this experiment is HA-tagged 14-3-3σ (UniProt P31947). The experiment in a line: co-IP; HEK293T cells co-transfected with combinations of HA-14-3-3σ, Myc- or V5-TDP-43 and Flag-FOXO, 1 mM H2O2 stress; lysis in 50 mM Tris-HCl pH 8.0, 150 mM NaCl, 0.4 mM EDTA, 1% NP-40, 0.05% sodium deoxycholate; anti-HA antibody overnight at 4°C, protein G-Sepharose, western blotting. On the technique in general: Immunoblotting shows a protein as a band on a membrane.

Consider “V5-TDP-43 ΔNLS (mutant TDP-43 lacking the nuclear localization signal) (from UniProt Q13148)”, for which the binding entry is recorded as “binds”.
